Data taken from US20250019361A1, “(3-QUINOLYL)-QUINAZOLINE” (BASF SE, priority 2021, published 2025).
Some results were stated once for a whole list of compounds, not compound by compound. For some assays here: At least one structure is not confirmed: it was looked up by name or label, or the drawing left a doubt.

Key:
[1] = system: Corynespora cassiicola G413A mutant; assay: Microtest: activity against Corynespora cassiicola G413A mutant in the microtiterplate test; format: cell-based; settings: 31 ppm
Botrytis cinerea [2] = assay: Microtest: activity against the grey mold Botrytis cinerea in the microtiterplate test; format: cell-based; settings: 31 ppm
Septoria tritici = assay: Microtest: activity against leaf blotch on wheat caused by Septoria tritici; format: cell-based; settings: 31 ppm
Experimental: The active compounds were formulated separately as a stock solution having a concentration of 10000 ppm in dimethyl sulfoxide.
The stock solutions were mixed according to the ratio, pipetted onto a micro titer plate (MTP) and diluted with water to the stated concentrations.
A spore suspension of Septoria tritici in an aqueous biomalt or yeast-bactopeptone-glycerine or DOB solution was then added.
The measured parameters were compared to the growth of the active compound-free control variant (100%) and the fungus-free blank value to determine the relative growth in % of the pathogens in the respective active compounds.

Fusarium culmorum = assay: Microtest: activity against Fusarium culmorum in the microtiterplate test; format: cell-based; settings: 31 ppm
Pyricularia oryzae = format: cell-based; settings: 31 ppm
Botrytis cinerea [3] = assay: Green house: preventative fungicidal control of Botrytis cinerea on leaves of green pepper; format: in vivo; settings: 250 ppm, sprayed one day before inoculation, assessed after 5 days, untreated plants 80% infected

Molecule | growth of the pathogen (relative growth in %, control 100%) [1] | growth of the pathogen (relative growth in %, control 100%) (Botrytis cinerea [2]) | growth of the pathogen (relative growth in %, control 100%) (Septoria tritici) | growth of the pathogen (relative growth in %, control 100%) (Fusarium culmorum) | growth of the pathogen (relative growth in %, control 100%) (Pyricularia oryzae) | growth of the pathogen (fungal attack on the leaves visually assessed as % diseased leaf area) (Botrytis cinerea [3])
Cc1cccc2cc(C3=NC(C)(C)Nc4ccccc43)cnc12 [Ex-48] | up to 17% | up to 14% | – | – | – | –
COCCC1(C)N=C(c2cnc3c(F)cccc3c2)c2ccccc2N1 (racemic) [Ex-66] | up to 17% | up to 14% | – | – | – | –
CC1(C)N=C(c2cnc3c(F)c(F)ccc3c2)c2cccc(F)c2N1C#N [Ex-56] | up to 17% | up to 14% | – | – | – | –
CC1(C)N=C(c2cnc3c(F)c(F)ccc3c2)c2cccc(Cl)c2N1 [Ex-51] | up to 17% | up to 14% | up to 18% | up to 20% | – | –
CN1c2ccccc2C(c2cnc3ccccc3c2)=NC1(C)C [Ex-53] | up to 17% | up to 14% | – | up to 20% | – | –
CC1(C)N=C(c2cnc3c(Cl)cccc3c2)c2cccc(Cl)c2N1C#N [Ex-40] | up to 17% | up to 14% | – | up to 20% | – | –
CN1c2ccccc2C(c2cnc3c(F)cccc3c2)=NC1(C)C [Ex-5, 4-(8-fluoro-3-quinolyl)-1,2,2-trimethyl-quinazoline] | up to 17% | up to 14% | – | – | – | –
CN1c2ccccc2C(c2cnc3c(Cl)cccc3c2)=NC1(C)C [Ex-33] | up to 17% | up to 14% | – | up to 20% | – | –
CC1(C)N=C(c2cnc3c(Cl)cccc3c2)c2cccc(F)c2N1 [Ex-30] | up to 17% | up to 14% | – | up to 20% | – | –
CC(=O)N1c2ccccc2C(c2cnc3c(F)cccc3c2)=NC1(C)C [Ex-20] | up to 17% | up to 14% | up to 18% | up to 20% | up to 20% | at most 13%
Cc1cccc2cc(C3=NC(C)(C)Nc4c(Cl)cccc43)cnc12 [Ex-44] | up to 17% | up to 14% | up to 18% | up to 20% | – | –
(2-aminophenyl)-(8-fluoro-3-quinolyl)methanone [Ex-3] | – | – | – | up to 20% | up to 20% | –
CN1c2c(F)cccc2C(c2cnc3c(F)cccc3c2)=NC12CCC2 [Ex-61] | up to 17% | up to 14% | up to 18% | up to 20% | – | at most 13%
Cc1cccc2cc(C3=NC(C)(C)N(C#N)c4c(F)cccc43)cnc12 [Ex-38] | up to 17% | up to 14% | – | up to 20% | – | –
Cc1cccc2cc(C3=NC(C)(C)N(C)c4ccccc43)cnc12 [Ex-49] | up to 17% | up to 14% | up to 18% | up to 20% | – | –
CN1c2c(ccc(F)c2F)C(c2cnc3ccccc3c2)=NC1(C)C [Ex-64] | up to 17% | up to 14% | – | up to 20% | – | –
CC1(C)N=C(c2cnc3ccccc3c2)c2cccc(Cl)c2N1C#N [Ex-35] | up to 17% | up to 14% | up to 18% | up to 20% | – | –
CC1(c2ccc(F)cc2)N=C(c2cnc3c(F)cccc3c2)c2ccccc2N1C#N (racemic) [Ex-68] | up to 17% | up to 14% | – | up to 20% | – | –

Molecule | growth of the pathogen (relative growth in %, control 100%) [1] | growth of the pathogen (relative growth in %, control 100%) (Botrytis cinerea [2]) | growth of the pathogen (relative growth in %, control 100%) (Septoria tritici) | growth of the pathogen (relative growth in %, control 100%) (Fusarium culmorum) | growth of the pathogen (relative growth in %, control 100%) (Pyricularia oryzae) | growth of the pathogen (fungal attack on the leaves visually assessed as % diseased leaf area) (Botrytis cinerea [3])
CC1(C)N=C(c2cnc3c(F)c(F)ccc3c2)c2cccc(Cl)c2N1C#N [Ex-58] | up to 17% | up to 14% | – | – | – | –
CC1(C)N=C(c2cnc3ccccc3c2)c2ccccc2N1C#N [Ex-54] | up to 17% | up to 14% | – | up to 20% | – | at most 13%
(8-fluoro-3-quinolyl)-(2-nitrophenyl)methanol [Ex-2] | up to 17% | – | – | up to 20% | up to 20% | –
CC1(C)N=C(c2cnc3c(Cl)cccc3c2)c2cccc(Cl)c2N1 [Ex-36] | up to 17% | up to 14% | up to 18% | up to 20% | – | –
CC1(C)N=C(c2cnc3c(F)c(F)ccc3c2)c2ccccc2N1 [Ex-49″] | up to 17% | up to 14% | – | – | – | –
CC1(C)N=C(c2cnc3c(Cl)cccc3c2)c2ccccc2N1 [Ex-32] | up to 17% | up to 14% | – | – | – | –
CC(C)CC(=O)N1c2c(F)cccc2C(c2cnc3c(F)cccc3c2)=NC1(C)C [Ex-16] | up to 17% | up to 14% | – | – | up to 20% | –
CC1(c2ccc(F)cc2)N=C(c2cnc3c(F)cccc3c2)c2ccccc2N1 (centres unmarked) [Ex-62] | up to 17% | up to 14% | – | up to 20% | – | –
CC1(C)N=C(c2cnc3c(F)c(F)ccc3c2)c2cccc(F)c2N1 [Ex-50] | up to 17% | up to 14% | up to 18% | up to 20% | – | –
CN1c2ccccc2C(c2cnc3c(F)c(F)ccc3c2)=NC1(C)C [Ex-41] | up to 17% | up to 14% | up to 18% | up to 20% | – | –
CC1(C)N=C(c2cnc3ccccc3c2)c2ccc(F)c(F)c2N1 [Ex-63] | up to 17% | up to 14% | – | – | – | –
Cc1cccc2cc(C3=NC(C)(C)N(C#N)c4c(Cl)cccc43)cnc12 [Ex-46] | up to 17% | up to 14% | – | up to 20% | – | at most 13%
CN1c2c(Cl)cccc2C(c2cnc3c(F)c(F)ccc3c2)=NC1(C)C [Ex-57] | up to 17% | up to 14% | up to 18% | up to 20% | – | –
CC1(C)N=C(c2cnc3c(Cl)cccc3c2)c2ccccc2N1C#N [Ex-34] | up to 17% | up to 14% | – | up to 20% | – | –
Cc1cccc2cc(C3=NC(C)(C)Nc4c(F)cccc43)cnc12 [Ex-37] | up to 17% | up to 14% | – | up to 20% | – | –
CC(C)C1(C)N=C(c2cnc3c(F)cccc3c2)c2ccccc2N1 (centres unmarked) [Ex-59] | up to 17% | up to 14% | up to 18% | – | – | –
CC1(C)N=C(c2cnc3c(Cl)cccc3c2)c2cccc(F)c2N1C#N [Ex-29] | up to 17% | up to 14% | – | up to 20% | up to 20% | –
CC1(C)N=C(c2cnc3ccccc3c2)c2cccc(Cl)c2N1 [Ex-27] | up to 17% | up to 14% | up to 18% | up to 20% | – | –
